For assay [1], the target named is T1, PolB1 of Sulfolobus solfataricus, endogenous (Sulfolobus solfataricus (endogenous in Sso cells)) (UniProt P26811).
T1 sequence: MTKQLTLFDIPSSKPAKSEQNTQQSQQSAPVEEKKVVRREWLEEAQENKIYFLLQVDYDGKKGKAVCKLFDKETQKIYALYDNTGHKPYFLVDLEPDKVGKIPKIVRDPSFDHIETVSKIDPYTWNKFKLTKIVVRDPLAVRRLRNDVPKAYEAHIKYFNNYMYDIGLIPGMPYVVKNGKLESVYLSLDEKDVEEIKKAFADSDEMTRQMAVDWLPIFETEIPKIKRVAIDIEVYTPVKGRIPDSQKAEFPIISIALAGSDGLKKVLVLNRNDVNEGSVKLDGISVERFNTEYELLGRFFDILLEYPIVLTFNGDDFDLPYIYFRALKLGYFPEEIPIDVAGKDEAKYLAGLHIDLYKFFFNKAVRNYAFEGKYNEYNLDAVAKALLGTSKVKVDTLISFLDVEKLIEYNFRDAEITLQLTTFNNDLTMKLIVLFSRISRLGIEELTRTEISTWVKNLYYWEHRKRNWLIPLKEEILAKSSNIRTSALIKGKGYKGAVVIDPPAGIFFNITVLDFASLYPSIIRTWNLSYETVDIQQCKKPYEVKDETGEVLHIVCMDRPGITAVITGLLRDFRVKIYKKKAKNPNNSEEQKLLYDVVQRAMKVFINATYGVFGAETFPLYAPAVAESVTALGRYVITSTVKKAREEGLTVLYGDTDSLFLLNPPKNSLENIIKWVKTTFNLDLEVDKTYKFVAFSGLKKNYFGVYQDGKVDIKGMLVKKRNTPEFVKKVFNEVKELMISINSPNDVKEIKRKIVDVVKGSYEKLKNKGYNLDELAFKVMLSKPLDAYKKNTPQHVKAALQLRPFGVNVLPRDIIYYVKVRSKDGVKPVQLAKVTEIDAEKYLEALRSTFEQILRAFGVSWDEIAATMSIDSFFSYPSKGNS
The assay can be described thus: co-IP; 100 μg Sso cell extract with anti-PolB1, PBP1 or PBP2 sera, nProtein A Sepharose, buffer C (20 mM Tris pH 7.5, 150 mM NaCl, 5 mM MgCl2, 10% glycerol, 1 mM DTT), room temperature; western blotting. Background: A western blot detects proteins with antibodies after separation by electrophoresis.

Protein sequences, listed by entry. Tags and fused reporters are not part of them. Lines headed by an entry give the natural chain unless they say otherwise; changes in a name come on top.
UniProt Q980X5: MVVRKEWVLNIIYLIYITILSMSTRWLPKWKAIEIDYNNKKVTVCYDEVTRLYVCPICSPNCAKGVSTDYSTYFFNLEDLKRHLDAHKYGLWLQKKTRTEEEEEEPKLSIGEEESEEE

Assay [2] addresses T1, PolB1 of Sulfolobus solfataricus, endogenous (Sulfolobus solfataricus (endogenous in Sso cells)). The assay can be described thus: SEC; Sso whole-cell extract treated with Benzonase and ethidium bromide, Superdex 200 HR 10/30 in 10 mM Tris pH 8.0, 150 mM NaCl; fractions western blotted; compared with recombinant proteins and holoenzyme. A general note: SEC sorts molecules by how far they enter the pores of the column.

Assay [3] deals with T2, recombinant PolB1 of Sulfolobus solfataricus (Sulfolobus solfataricus) (UniProt P26811).
T2 sequence: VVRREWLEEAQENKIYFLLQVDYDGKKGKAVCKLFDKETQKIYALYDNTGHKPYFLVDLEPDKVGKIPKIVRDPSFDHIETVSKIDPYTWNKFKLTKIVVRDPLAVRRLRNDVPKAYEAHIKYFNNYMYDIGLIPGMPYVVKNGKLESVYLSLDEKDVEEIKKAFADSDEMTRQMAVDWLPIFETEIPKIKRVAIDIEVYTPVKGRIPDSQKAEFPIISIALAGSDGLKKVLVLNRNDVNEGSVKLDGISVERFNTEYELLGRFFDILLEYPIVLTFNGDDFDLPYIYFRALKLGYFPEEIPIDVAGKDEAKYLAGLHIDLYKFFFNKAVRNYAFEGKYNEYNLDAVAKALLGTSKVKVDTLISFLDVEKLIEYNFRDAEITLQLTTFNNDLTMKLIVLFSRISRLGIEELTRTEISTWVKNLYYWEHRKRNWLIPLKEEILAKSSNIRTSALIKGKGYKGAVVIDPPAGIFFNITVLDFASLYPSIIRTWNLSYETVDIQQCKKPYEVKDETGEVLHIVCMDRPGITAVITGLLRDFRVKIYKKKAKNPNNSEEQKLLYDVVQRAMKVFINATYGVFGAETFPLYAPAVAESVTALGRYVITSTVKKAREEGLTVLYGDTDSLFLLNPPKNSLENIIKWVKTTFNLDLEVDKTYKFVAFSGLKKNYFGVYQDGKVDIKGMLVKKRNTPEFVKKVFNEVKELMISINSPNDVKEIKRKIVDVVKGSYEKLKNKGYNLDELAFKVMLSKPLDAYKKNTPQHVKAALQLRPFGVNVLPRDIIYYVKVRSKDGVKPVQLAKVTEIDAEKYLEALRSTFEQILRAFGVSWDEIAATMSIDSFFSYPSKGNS
The experiment in a line: negative-stain electron microscopy; PolB1:PBP1-ΔC:PBP2 with a primer–template DNA, gel filtered, 10 μg/ml, uranyl formate stain; 3D reconstruction at 20.2 Å compared with apo PolB1; both purified.

For assay [4], the target named is T2, recombinant PolB1 of Sulfolobus solfataricus (Sulfolobus solfataricus). The assay can be described thus: SEC; purified PBP1, PBP2 and PolB1 and combinations, 10 min at room temperature, Superdex 200 HR 10/30 in 20 mM Tris pH 8, 300 mM NaCl; fractions on SDS-PAGE; both purified.
The target is the same in assay [5]. The assay can be described thus: cross-linking; 57 μM holoenzyme complex with 0.625 mM BS3 in 10 mM HEPES pH 7.5, 150 mM NaCl, room temperature 30 min; Ni-NTA under guanidine, SDS-PAGE bands analysed by mass spectrometry and western blotting; both purified.
Assay [6] deals with T3, MBP-tagged PolB1 thumb domain (residues 716–882) (Sulfolobus solfataricus) (UniProt P26811).
T3 sequence: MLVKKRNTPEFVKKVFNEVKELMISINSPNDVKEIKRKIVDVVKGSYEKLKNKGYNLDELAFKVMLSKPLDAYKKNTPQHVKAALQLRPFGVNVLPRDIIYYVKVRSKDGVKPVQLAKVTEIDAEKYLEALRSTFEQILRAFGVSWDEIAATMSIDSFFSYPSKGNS
The experiment in a line: pull-down; MBP fusion protein on Amylose Resin beads with target protein in buffer A (10 mM HEPES pH 7.5, 100 mM NaCl, 1 mM DTT), room temperature 30 min; Coomassie or silver staining; both purified.

The target of assay [7] is PBP1 of Sulfolobus solfataricus (SSO0150), endogenous (Sulfolobus solfataricus (endogenous in Sso cells)) (UniProt Q980X5). The assay can be described thus: co-IP; 100 μg Sso cell extract with anti-PolB1, PBP1 or PBP2 sera, nProtein A Sepharose, buffer C (20 mM Tris pH 7.5, 150 mM NaCl, 5 mM MgCl2, 10% glycerol, 1 mM DTT), room temperature; western blotting.
In assay [8] the target is PBP2 of Sulfolobus solfataricus (SSO6202), endogenous (Sulfolobus solfataricus (endogenous in Sso cells)). Described as above.
The target of assay [9] is GST-PBP1 (Sulfolobus solfataricus) (UniProt Q980X5). The assay can be described thus: pull-down; GST-fusion protein on glutathione sepharose (~10 μg) and 10 μg of target in 100 μl TBST (10 mM Tris pH 8, 150 mM NaCl, 0.1% Tween 20), room temperature 30 min; Coomassie staining or western blotting; both purified.
The target of assay [10] is GST-PBP2 (Sulfolobus solfataricus). Described as above.

No constants are given. Whether binding was seen depends on the method and setting. For part of these data: Binding calls can cover weak binding; strength is not graded here. For part of these data: Sequences can lack the tags named with a protein. For part of these data: Binding seen in cells or lysates may run through a third protein.

As to “PBP1 of Sulfolobus solfataricus (SSO0150), endogenous (from UniProt Q980X5)”, the binding entry in assay [1] and in assay [2] was “binds” each time.

Regarding “PBP1ΔC, PBP1 C-terminal tail deletion mutant (from UniProt Q980X5) (domain or fragment)”, the binding entry in assay [3] is “binds”.

As for “PBP2 of Sulfolobus solfataricus (SSO6202), endogenous”, the binding result in assay [1] and in assay [2] was “binds” throughout.

Take “recombinant PBP1 of Sulfolobus solfataricus (SSO0150) (from UniProt Q980X5)”: the binding entry in assay [4] and in [5] was “binds” throughout.

For “recombinant PBP2 of Sulfolobus solfataricus (SSO6202)”, the binding entry in [4], in assay [3], in assay [6] and in [5] was “binds” in each case.

B1: PolB1 of Sulfolobus solfataricus, endogenous (enzyme, UniProt P26811 1-882)
chain: MTKQLTLFDIPSSKPAKSEQNTQQSQQSAPVEEKKVVRREWLEEAQENKIYFLLQVDYDGKKGKAVCKLFDKETQKIYALYDNTGHKPYFLVDLEPDKVGKIPKIVRDPSFDHIETVSKIDPYTWNKFKLTKIVVRDPLAVRRLRNDVPKAYEAHIKYFNNYMYDIGLIPGMPYVVKNGKLESVYLSLDEKDVEEIKKAFADSDEMTRQMAVDWLPIFETEIPKIKRVAIDIEVYTPVKGRIPDSQKAEFPIISIALAGSDGLKKVLVLNRNDVNEGSVKLDGISVERFNTEYELLGRFFDILLEYPIVLTFNGDDFDLPYIYFRALKLGYFPEEIPIDVAGKDEAKYLAGLHIDLYKFFFNKAVRNYAFEGKYNEYNLDAVAKALLGTSKVKVDTLISFLDVEKLIEYNFRDAEITLQLTTFNNDLTMKLIVLFSRISRLGIEELTRTEISTWVKNLYYWEHRKRNWLIPLKEEILAKSSNIRTSALIKGKGYKGAVVIDPPAGIFFNITVLDFASLYPSIIRTWNLSYETVDIQQCKKPYEVKDETGEVLHIVCMDRPGITAVITGLLRDFRVKIYKKKAKNPNNSEEQKLLYDVVQRAMKVFINATYGVFGAETFPLYAPAVAESVTALGRYVITSTVKKAREEGLTVLYGDTDSLFLLNPPKNSLENIIKWVKTTFNLDLEVDKTYKFVAFSGLKKNYFGVYQDGKVDIKGMLVKKRNTPEFVKKVFNEVKELMISINSPNDVKEIKRKIVDVVKGSYEKLKNKGYNLDELAFKVMLSKPLDAYKKNTPQHVKAALQLRPFGVNVLPRDIIYYVKVRSKDGVKPVQLAKVTEIDAEKYLEALRSTFEQILRAFGVSWDEIAATMSIDSFFSYPSKGNS
As for B1, the binding result in assay [7] and in assay [8] was “binds” in each case.

B2: Y family lesion bypass DNA polymerase, Dpo4 (enzyme, UniProt Q97W02 1-352)
chain: MIVLFVDFDYFYAQVEEVLNPSLKGKPVVVCVFSGRFEDSGAVATANYEARKFGVKAGIPIVEAKKILPNAVYLPMRKEVYQQVSSRIMNLLREYSEKIEIASIDEAYLDISDKVRDYREAYNLGLEIKNKILEKEKITVTVGISKNKVFAKIAADMAKPNGIKVIDDEEVKRLIRELDIADVPGIGNITAEKLKKLGINKLVDTLSIEFDKLKGMIGEAKAKYLISLARDEYNEPIRTRVRKSIGRIVTMKRNSRNLEEIKPYLFRAIEESYYKLDKRIPKAIHVVAVTEDLDIVSRGRTFPHGISKETAYSESVKLLQKILEEDERKIRRIGVRFSKFIEAIGLDKFFDT
For the molecule B2, the binding entry in assay [9] and in [10] was “no binding (tested: 10 μg of target in 100 μl)” each time.
